Results of single-concentration screens

By UniProt entry, the sequences of proteins in these tests, tags left out. Residues count along the entry.
UniProt Q4DA54, 1-478: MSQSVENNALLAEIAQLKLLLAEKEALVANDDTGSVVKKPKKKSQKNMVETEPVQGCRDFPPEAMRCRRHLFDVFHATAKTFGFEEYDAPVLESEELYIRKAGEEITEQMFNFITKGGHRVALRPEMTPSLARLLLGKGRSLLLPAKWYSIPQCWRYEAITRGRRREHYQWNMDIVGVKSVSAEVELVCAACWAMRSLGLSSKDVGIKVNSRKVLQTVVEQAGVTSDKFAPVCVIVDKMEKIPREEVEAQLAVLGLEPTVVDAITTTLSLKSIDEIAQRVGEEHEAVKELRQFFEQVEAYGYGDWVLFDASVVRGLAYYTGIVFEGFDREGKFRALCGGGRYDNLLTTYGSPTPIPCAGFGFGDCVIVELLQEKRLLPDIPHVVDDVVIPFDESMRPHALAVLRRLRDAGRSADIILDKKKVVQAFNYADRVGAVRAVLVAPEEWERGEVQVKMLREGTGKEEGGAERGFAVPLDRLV
UniProt P9WFT3, whole entry: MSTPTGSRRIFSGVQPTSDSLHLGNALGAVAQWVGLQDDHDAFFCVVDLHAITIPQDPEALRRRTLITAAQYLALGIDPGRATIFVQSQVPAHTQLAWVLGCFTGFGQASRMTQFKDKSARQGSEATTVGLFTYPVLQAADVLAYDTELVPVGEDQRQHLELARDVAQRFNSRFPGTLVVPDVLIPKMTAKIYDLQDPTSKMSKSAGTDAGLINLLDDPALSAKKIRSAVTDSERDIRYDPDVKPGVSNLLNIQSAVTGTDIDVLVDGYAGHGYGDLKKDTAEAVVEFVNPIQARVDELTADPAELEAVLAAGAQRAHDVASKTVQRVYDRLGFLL
UniProt I6X8D2, whole entry: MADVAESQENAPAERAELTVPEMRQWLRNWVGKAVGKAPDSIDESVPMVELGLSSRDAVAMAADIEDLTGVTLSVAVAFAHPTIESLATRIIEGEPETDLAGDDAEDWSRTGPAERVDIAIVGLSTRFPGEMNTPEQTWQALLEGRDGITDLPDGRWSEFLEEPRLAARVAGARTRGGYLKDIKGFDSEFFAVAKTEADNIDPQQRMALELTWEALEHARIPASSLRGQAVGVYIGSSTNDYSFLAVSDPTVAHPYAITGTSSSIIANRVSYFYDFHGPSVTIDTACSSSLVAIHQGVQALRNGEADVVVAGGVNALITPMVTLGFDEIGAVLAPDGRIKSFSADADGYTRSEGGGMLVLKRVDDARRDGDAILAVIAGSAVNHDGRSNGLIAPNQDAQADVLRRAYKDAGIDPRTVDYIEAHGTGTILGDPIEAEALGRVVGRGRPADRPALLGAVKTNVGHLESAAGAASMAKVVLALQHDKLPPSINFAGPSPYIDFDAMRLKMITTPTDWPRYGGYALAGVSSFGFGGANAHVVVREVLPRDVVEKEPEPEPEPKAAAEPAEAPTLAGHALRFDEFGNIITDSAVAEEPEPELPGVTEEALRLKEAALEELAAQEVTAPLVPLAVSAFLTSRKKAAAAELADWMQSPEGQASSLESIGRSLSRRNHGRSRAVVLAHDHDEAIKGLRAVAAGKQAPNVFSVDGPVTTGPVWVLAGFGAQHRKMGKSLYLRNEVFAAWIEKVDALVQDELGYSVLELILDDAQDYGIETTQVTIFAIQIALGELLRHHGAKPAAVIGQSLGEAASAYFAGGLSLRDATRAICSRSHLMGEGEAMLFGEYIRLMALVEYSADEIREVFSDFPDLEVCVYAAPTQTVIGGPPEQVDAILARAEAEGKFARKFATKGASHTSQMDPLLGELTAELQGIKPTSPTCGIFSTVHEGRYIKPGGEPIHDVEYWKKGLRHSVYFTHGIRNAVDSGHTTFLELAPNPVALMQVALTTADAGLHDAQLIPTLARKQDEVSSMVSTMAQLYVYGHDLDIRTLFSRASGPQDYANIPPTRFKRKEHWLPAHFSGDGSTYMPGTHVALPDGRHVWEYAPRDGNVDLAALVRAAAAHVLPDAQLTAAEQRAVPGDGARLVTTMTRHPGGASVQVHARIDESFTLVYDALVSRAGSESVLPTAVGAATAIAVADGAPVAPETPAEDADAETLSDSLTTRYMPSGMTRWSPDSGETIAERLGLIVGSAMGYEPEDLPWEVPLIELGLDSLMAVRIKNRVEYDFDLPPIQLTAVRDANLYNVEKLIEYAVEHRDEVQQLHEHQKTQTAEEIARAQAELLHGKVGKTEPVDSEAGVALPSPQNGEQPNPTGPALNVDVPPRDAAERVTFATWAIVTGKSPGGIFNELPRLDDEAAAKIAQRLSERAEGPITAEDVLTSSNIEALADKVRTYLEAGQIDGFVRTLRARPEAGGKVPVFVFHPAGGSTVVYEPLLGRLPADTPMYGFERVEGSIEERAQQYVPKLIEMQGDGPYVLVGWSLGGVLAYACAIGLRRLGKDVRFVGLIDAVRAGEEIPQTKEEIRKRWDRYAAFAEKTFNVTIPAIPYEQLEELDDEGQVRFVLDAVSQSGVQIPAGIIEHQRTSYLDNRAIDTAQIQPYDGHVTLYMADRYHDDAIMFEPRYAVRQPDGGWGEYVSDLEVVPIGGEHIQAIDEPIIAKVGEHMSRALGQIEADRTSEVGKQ
UniProt Q8IDJ8, 1-583: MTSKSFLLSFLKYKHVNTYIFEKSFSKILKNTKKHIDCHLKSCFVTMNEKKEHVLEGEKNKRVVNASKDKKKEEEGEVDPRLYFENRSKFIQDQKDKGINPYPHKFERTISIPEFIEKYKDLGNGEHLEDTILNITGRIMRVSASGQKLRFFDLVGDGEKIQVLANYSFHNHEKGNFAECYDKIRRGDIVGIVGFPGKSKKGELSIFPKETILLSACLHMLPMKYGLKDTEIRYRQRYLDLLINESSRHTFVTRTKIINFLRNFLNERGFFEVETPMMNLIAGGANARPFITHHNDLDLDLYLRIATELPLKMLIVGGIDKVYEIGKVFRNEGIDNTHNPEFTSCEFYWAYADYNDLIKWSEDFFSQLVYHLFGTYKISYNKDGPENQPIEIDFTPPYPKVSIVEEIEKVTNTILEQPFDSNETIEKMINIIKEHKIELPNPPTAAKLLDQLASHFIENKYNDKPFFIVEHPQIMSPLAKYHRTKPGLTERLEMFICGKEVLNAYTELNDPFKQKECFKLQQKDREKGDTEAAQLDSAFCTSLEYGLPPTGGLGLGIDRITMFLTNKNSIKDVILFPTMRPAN

Measurements from “University of Dundee, Small-Polar-MMV Screening Library” (2021), ChEMBL document CHEMBL3988442.

A: 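Histidine-tRNA ligase, Trypanosoma cruzi CL Brener (UniProt Q4DA54). Enzyme assay of histidyl-tRNA synthetase; the read-out is not stated. Concentration: 30 µM. Higher reads as stronger inhibition (inferred: compounds with an IC50 in retests scored well above the rest). About 69,000 compounds were tested under these conditions; 0.045% (about 31) showed 50% or more at least once.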
B: 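Tryptophan-tRNA ligase, Mycobacterium tuberculosis (UniProt P9WFT3). Enzyme assay of tryptophanyl-tRNA synthetase; the read-out is not stated. Concentration: 10 µM. Direction is not recorded; retested compounds ran higher, which suggests that high means inhibition. Size under these conditions: about 65,000 compounds, about 64 of them at 50% or above in at least one test.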
C: 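Polyketide synthase Pks13, Mycobacterium tuberculosis (UniProt I6X8D2). Enzyme assay of the thioesterase domain of polyketide synthase 13; the read-out is not stated. Concentration: 30 µM. The record gives no direction; the compounds picked for IC50 retests had high values, so higher reads as stronger inhibition. Size under these conditions: about 67,000 compounds, about 300 of them at 50% or above in at least one test.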
D: 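Enzyme assay of the cytosolic lysyl-tRNA synthetase in 384-well plates, read by luminescence. Target: Lysine-tRNA ligase, Plasmodium falciparum 3D7 (UniProt Q8IDJ8). Tested at 30 µM. Direction is inferred from only a few compounds that gave an IC50; most scored high, so higher reads as stronger inhibition. Of about 69,000 compounds tested this way, about 49 (0.071%) reached 50% or more in at least one test.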
E: 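Assay of Toxoplasma gondii numbers, read through their beta-galactosidase reporter with a colour substrate. Concentration: 10 µM. The record gives no direction; the compounds picked for IC50 retests had high values, so higher reads as fewer parasites. Size under these conditions: about 67,000 compounds, about 260 of them at 50% or above in at least one test.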

Values are the deposited “Percent Effect”, in %. The controls that fix the scale are not given in the record; negative values are as filed. This is an unselected part of the compounds tested. A dash means the value is not listed here; it may have been measured.

SMILES | A | B | C | D | E
Cc1cncc(C2CCCN(C(=O)c3c[nH]c(=O)[nH]c3=O)C2)n1 (stereo not given) | 2.151% | 0.5833% | -8.652% | 7.691% | 1.158%
CCc1c(C)[nH]c(C2(N)CCCCC2)nc1=O | 3.982% | 4.271% | -13.74% | 6.31% | -
CCc1ccc(C(=O)N2CCC(c3nncn3CC)CC2)o1 | 9.548% | 1.321% | - | 5.035% | 1.065%
Cc1ccc(C(CNC(=O)NCc2cc[nH]n2)N2CCOCC2)o1 (stereo not given) | 4.58% | -3.044% | -6.273% | -1.571% | -39.02%
COCCN(CCN(C)C)C(=O)NC1CCc2ccccc2C1 (stereo not given) | 0% | 9.012% | -14.63% | 3.592% | -1.323%
CCc1cnc(CCNS(C)(=O)=O)s1 | 7.921% | 3.56% | -6.169% | -4.874% | -18.74%
CC(C)CCN1C2(CCN(c3ncccn3)C2)c2ccccc2S1(=O)=O (stereo not given) | 1.905% | -4.876% | -27.66% | 0.04718% | 8.231%
[H][C@@]12CCN(C(=O)COC)[C@]1([H])C(=O)N(CCC)C(=O)N2Cc1cccs1 | - | - | - | - | -6.01%
Cc1sc2nc(CCN)nc(N3CC(N4CCCCC4)C3)c2c1C | 3.448% | 13.15% | -18.97% | -6.938% | 16.61%
O=C(O)C(F)(F)F.O=C(O)C(F)(F)F.[H][C@@]12COC[C@@H](C(=O)NCc3ccccn3)[C@]1([H])CN(c1ncccn1)C2 | - | - | - | - | -2.044%
CCC(CNC(=O)c1ccc(Br)o1)N1CCc2ccccc2C1 (stereo not given) | 4.167% | 0.387% | -26.03% | 2.105% | 1.269%
Cn1cnc2c1CCN(Cc1csc(C3CCCC3)n1)C2 | 17.14% | -6.671% | -14.04% | -0.04149% | 3.595%
CCCOc1ccc(Cl)cc1NC(=O)NCCC(=O)N(C)C | 0% | -0.5735% | -16.52% | 7.836% | 15.25%
COc1ccc(/C=C/CN2C[C@H]3CC[C@@H]2CN(S(=O)(=O)N(C)C)C3)cc1 | 13.23% | -1.685% | -0.8597% | 17.19% | -
O=C(CSc1ccc(F)cc1)NS(=O)(=O)c1ccc2c(c1)OCCO2 | -4.167% | 4.122% | 4.781% | 1.044% | 4.826%
COc1ccc(C(=O)N2CCCC(C)C2)cc1F (stereo not given) | -0.7519% | -3.208% | -15.55% | 4.166% | 0.5169%
CCc1nc(CN(C)CC(c2cccs2)N2CCOCC2)no1 (stereo not given) | -0.3831% | 2.818% | -20.58% | 0.9467% | 0.4308%
CCNC(=O)C(C)NC(=O)Nc1ccccc1Cl (stereo not given) | 1.176% | 0.07468% | 13.25% | 0.9383% | 1.621%
COc1ccccc1OCC(=O)N1CCC[C@]2(C[C@@H](OC)CO2)C1 | 3.226% | 8.845% | 1.938% | -1.489% | 15.35%
CCc1nc(C2CCCN2C(=O)c2cnc3n[nH]c(C)c3c2)no1 (stereo not given) | 8.808% | 1.052% | -12.87% | 4.687% | 0.5302%
COCCOCCNC(=O)C(C)Oc1ccccc1C(F)(F)F (stereo not given) | 8.247% | -0.7048% | -1.398% | 4.467% | -6.481%
Cc1nc(N(C)C)nc(C)c1NC(=O)c1ccccc1C(F)(F)F | 3.365% | -0.1485% | 21.19% | 3.213% | 25.44%
Cn1c(NC(=O)CCS(=O)(=O)C2CCCC2)nc2cc(Cl)ccc21 | 5.978% | -4.352% | -24.31% | 3.495% | 2.308%
CN(C)c1cc(CNC(=O)c2cccc(F)c2)ccn1 | 6.916% | 22.06% | -19.47% | -2.334% | -23.78%
Cc1ccc(C(=O)N2CCn3cc(CN4CCCCC4)nc3C2)o1 | 2.174% | -1.654% | -9.154% | -3.043% | -
COc1ccc(Cc2ncc3c(n2)CN(C(=O)C2COCCO2)C3)cc1 (stereo not given) | 2.618% | -1.71% | -20.11% | 2.036% | 1.556%
O=C(c1cc(C2CC2)[nH]n1)N1CCN(Cc2ccc3c(c2)OCO3)CC1 | 1.744% | 0.0684% | 2.22% | 3.425% | -26.08%
Cc1ccsc1-c1nccn1C1CC(=O)N(C(C)C)C1 (stereo not given) | 2.4% | -3.382% | -19.67% | 0.3364% | -21.49%
CC(Cn1ccnc1)NC(=O)NCCNC(=O)C(C)C (stereo not given) | -1.141% | 2.201% | -29.24% | 0.3759% | -3.246%
O=C(NCCOC1CCCC1)c1ccc(-c2ccco2)[nH]c1=O | 6.105% | -4.944% | -36.26% | 2.04% | -42.11%
CCc1nc(CNC(=O)Nc2nc(COC)cs2)cs1 | 1.01% | -0.9372% | -28.07% | 3.435% | 2.773%
COCCC(=O)N1C[C@H](C(C)C)[C@@H](N(C)C)C1 | -4.478% | -0.9397% | -12.48% | 2.096% | 9.572%
O=S(=O)(c1ccc(F)cc1)N1CCCC1c1cc[nH]n1 (stereo not given) | 4.396% | - | -4.908% | 1.583% | -20.77%
O=C(Nc1cnc(N2CCOCC2)nc1)c1ccc(C(F)(F)F)cc1 | 3.415% | -1.025% | 106.2% | 8.091% | -11.58%
CN(C)c1ncc2c(O)nc(C3CCNCC3)cc2n1.Cl | - | - | - | - | -1.893%
[H][C@@]12CN(C)C[C@]1(C(=O)N(C)C)CCC21CCN(C(=O)NC(C)C)CC1 | - | - | - | - | -30.57%
CNS(=O)(=O)CC(=O)N(Cc1ccsc1)c1ccccc1 | 13.29% | 0.06345% | -3.148% | 5.103% | 0.8011%
CCC(C)NS(=O)(=O)Cc1cccc(NC(=O)C(C)C)c1 (stereo not given) | 9.524% | -4.681% | -18.51% | 3.199% | 3.339%
Cc1cc(CN2CCN(CC(O)c3ccc(C)c(C)c3)CC2)no1 (stereo not given) | 3.429% | -5.501% | -7.348% | 0.6183% | 1.174%
CS(=O)(=O)c1cncnc1C1CCCN(C(=O)Cc2ccccc2F)C1 (stereo not given) | 2.273% | -5.667% | -8.159% | 0.4837% | -3.603%
CCc1nc(NC2CCN(CC(=O)NC3CC3)CC2)c2cnn(C)c2n1 | 0.9901% | -3.376% | 13.44% | -1.426% | -
[H][C@@]12C[C@H](c3nnc(C4CC4)o3)O[C@@]1([H])CCN(CC1CCOCC1)C2 | - | - | - | - | 6.098%
COC(C)c1noc(CN2CCCNCC2)n1 (stereo not given) | 8.387% | -3.455% | 7.888% | -0.5973% | -6.714%
Cc1cnn(CC2CCCN2CC(=O)NC2CCOCC2)c1 (stereo not given) | 0% | 0.2556% | -13.94% | 1.083% | -21.99%
O[C@@H]1CN(Cc2ccncc2)C[C@H]1Oc1ccccc1 | 6.667% | - | -0.8552% | 2.131% | -4.221%
CC(C)N1CCC2(CCCN(c3nccc(C(F)(F)F)n3)C2)CC1.O=C(O)C(F)(F)F | - | - | - | - | -6.842%
OCCN1CCN(Cc2coc(-c3cccc(Cl)c3)n2)CC1 | 2.857% | 21.32% | -36.45% | 0.7884% | -38.92%
Cc1n[nH]c(C2CN(C(=O)COCC(F)(F)F)CCO2)n1 (stereo not given) | -1.98% | -4.821% | 15.89% | -3.056% | -45.55%

Repeated from the top, 3 entries:

Result for Cc1cncc(C2CCCN(C(=O)c3c[nH]c(=O)[nH]c3=O)C2)n1 (stereo not given) was A: 2.151%; B: 0.5833%; C: -8.652%; D: 7.691%; E: 1.158%.
Result for CCc1c(C)[nH]c(C2(N)CCCCC2)nc1=O was A: 3.982%; B: 4.271%; C: -13.74%; D: 6.31%.
Result for CCc1ccc(C(=O)N2CCC(c3nncn3CC)CC2)o1 was A: 9.548%; B: 1.321%; D: 5.035%; E: 1.065%.